Patent US10450346B2, “Immunotherapy against several tumors of the blood, in particular chronic lymphoid leukemia (CLL)” (Immatics biotechnologies GmbH, priority 2014, dated 2019)

B1: TRAF3 interacting protein 3 (protein, UniProt Q9Y228 1-551, looked up)
TRAF3-interacting …: MISPDPRPSPGLARWAESYEAKCERRQEIRESRRCRPNVTTCRQVGKTLRIQQREQLQRARLQQFFRRRNLELEEKGKAQHPQAREQGPSRRPGQVTVLKEPLSCARRISSPREQVTGTSSEVFPAQHPPPSGICRDLSDHLSSQAGGLPPQDTPIKKPPKHHRGTQTKAEGPTIKNDASQQTNYGVAVLDKEIIQLSDYLKEALQRELVLKQKMVILQDLLSTLIQASDSSWKGQLNEDKLKGKLRSLENQLYTCTQKYSPWGMKKVLLEMEDQKNSYEQKAKESLQKVLEEKMNAEQQLQSTQRSLALAEQKCEEWRSQYEALKEDWRTLGTQHRELESQLHVLQSKLQGADSRDLQMNQALRFLENEHQQLQAKIECLQGDRDLCSLDTQDLQDQLKRSEAEKLTLVTRVQQLQGLLQNQSLQLQEQEKLLTKKDQALPVWSPKSFPNEVEPEGTGKEKDWDLRDQLQKKTLQLQAKEKECRELHSELDNLSDEYLSCLRKLQHCREELNQSQQLPPRRQCGRWLPVLMVVIAAALAVFLANKDNLMI
notes: LiTAA source protein
B2: zinc finger protein 107 (protein, UniProt Q9UII5 1-783, looked up)
Zinc finger protein 107: MVAKPPVMSFHFAQDLWPEQNIKDSFQKVTLRRYGKCEYENLQLRKGCKHVDECTGHKGGHNTVNQCLTATPSKIFQCNKYVKVFDKFSNSNRYKRRHTGNKHFKCKECSKSFCVLSQLTQHRRIHTRVNSYKCEECGKAFNWFSTLTKHKRIHTGEKPYKCEECGKAFNQSSQLTRHKIIHTEEKPNKCEECGKAFKQASHLTIHKIIHTGEKPYKYEECGKVFSQSSHLTTQKILHTGENLYKCKECGKAFNLFSNLTNHKRIHAGEKPYKCKECGRAFNISSNLNKQEKIHTGGKLNKCEECDKAFNRSLKLTAHKKILMEEKPYKCEECGKVFNQFSTLTRHKIIHTGEKPYKCKECGKAFNQSSNLTEHKKIHTAEKSYKCEECGKAFNQHSNLINHRKIYSGEKPYKCEECGKAFNRSSTLTRHKKIHTGEKPYKCEECDRAFSQSSNLTEHKKIHTGEKPYKCEECGKAFNRFSTLTKHKRIHTGEKPYKCEECGKAFNQSYQLTRHKIVHTKEKLNKCEEFGKAFKQSSHRTIHKIIHTGEKPYKCEEHGKVFNQSSNLTTQKIIHTGENLYKFEEHGKAFNLFSNITNHKIIYTGEKPHKCEECGKAYNRFSNLTIHKRIHTGEKPYQCAECGKAFNCSSTLNRHKIIHTGEKPYKCKECGKAFNLSSTLTAHKKIHTGEKPYKCEECGKAFNQSSNLTTHKKIHTSEKPYKCEECGKSFNQFSSLNIHKIIHTGEKPYKCGDYGRAFNLSSNLTTHKKIHTGEKPYKCEYGKT
notes: LiTAA source protein
B3: A kinase (PRKA) anchor protein 2 (protein, UniProt Q9Y2D5 1-1103, looked up)
PALM2-AKAP2 fusion protein: MAEAELHKERLQAIAEKRKRQTEIEGKRQQLDEQILLLQHSKSKVLREKWLLQGIPAGTAEEEEARRRQSEEDEFRVKQLEDNIQRLEQEIQTLESEESQISAKEQIILEKLKETEKSFKDFQKGFSSTDGDAVNYISSQLPDLPILCSRTAEPSPGQDGTSRAAGVGWENVLLKEGESASNATETSGPDMTIKKPPQLSEDDIWLKSEGDNYSATLLEPAASSLSPDHKNMEIEVSVAECKSVPGITSTPHPMDHPSAFYSPPHNGLLTDHHESLDNDVAREIRYLDEVLEANCCDSAVDGTYNGTSSPEPGAVVLVGGLSPPVHEATQPEPTERTASRQAPPHIELSNSSPDPMAEAERTNGHSPSQPRDALGDSLQVPVSPSSTTSSRCSSRDGEFTLTTLKKEAKFELRAFHEDKKPSKLFEDDEHEKEQYCIRKVRPSEEMLELEKERRELIRSQAVKKNPGIAAKWWNPPQEKTIEEQLDEEHLESHKKYKERKERRAQQEQLLLQKQLQQQQQQPPSQLCTAPASSHERASMIDKAKEDIVTEQIDFSAARKQFQLMENSRQAVAKGQSTPRLFSIKPFYRPLGSVNSDKPLTNPRPPSVGGPPEDSGASAAKGQKSPGALETPSAAGSQGNTASQGKEGPYSEPSKRGPLSKLWAEDGEFTSARAVLTVVKDDDHGILDQFSRSVNVSLTQEELDSGLDELSVRSQDTTVLETLSNDFSMDNISDSGASNETTNALQENSLADFSLPQTPQTDNPSEGRGEGVSKSFSDHGFYSPSSTLGDSPLVDDPLEYQAGLLVQNAIQQAIAEQVDKAVSKTSRDGAEQQGPEATVEEAEAAAFGSEKPQSMFEPPQVSSPVQEKRDVLPKILPAEDRALRERGPPQPLPAVQPSGPINMEETRPEGSYFSKYSEAAELRSTASLLATQESDVMVGPFKLRSRKQRTLSMIEEEIRAAQEREEELKRQRQVLQSTQSPRTKNAPSLPSRTCYKTAPGKIEKVKPPPSPTTEGPSLQPDLAPEEAAGTQRPKNLMQTLMEDYETHKSKRRERMDDSSYTSKLLSCKVTSEVLEATRVNRRKSALALRWEAGIYANQEEEDNE
notes: LiTAA source protein
B4: CTD phosphatase, subunit 1 (protein, UniProt Q9Y5B0 1-961, looked up)
RNA polymerase II subunit A …: MEVPAAGRVPAEGAPTAAVAEVRCPGPAPLRLLEWRVAAGAAVRIGSVLAVFEAAASAQSSGASQSRVASGGCVRPARPERRLRSERAGVVRELCAQPGQVVAPGAVLVRLEGCSHPVVMKGLCAECGQDLTQLQSKNGKQQVPLSTATVSMVHSVPELMVSSEQAEQLGREDQQRLHRNRKLVLMVDLDQTLIHTTEQHCQQMSNKGIFHFQLGRGEPMLHTRLRPHCKDFLEKIAKLYELHVFTFGSRLYAHTIAGFLDPEKKLFSHRILSRDECIDPFSKTGNLRNLFPCGDSMVCIIDDREDVWKFAPNLITVKKYVYFQGTGDMNAPPGSRESQTRKKVNHSRGTEVSEPSPPVRDPEGVTQAPGVEPSNGLEKPARELNGSEAATPRDSPRPGKPDERDIWPPAQAPTSSQELAGAPEPQGSCAQGGRVAPGQRPAQGATGTDLDFDLSSDSESSSESEGTKSSSSASDGESEGKRGRQKPKAAPEGAGALAQGSSLEPGRPAAPSLPGEAEPGAHAPDKEPELGGQEEGERDGLCGLGNGCADRKEAETESQNSELSGVTAGESLDQSMEEEEEEDTDEDDHLIYLEEILVRVHTDYYAKYDRYLNKEIEEAPDIRKIVPELKSKVLADVAIIFSGLHPTNFPIEKTREHYHATALGAKILTRLVLSPDAPDRATHLIAARAGTEKVLQAQECGHLHVVNPDWLWSCLERWDKVEEQLFPLRDDHTKAQRENSPAAFPDREGVPPTALFHPMPVLPKAQPGPEVRIYDSNTGKLIRTGARGPPAPSSSLPIRQEPSSFRAVPPPQPQMFGEELPDAQDGEQPGPSRRKRQPSMSETMPLYTLCKEDLESMDKEVDDILGEGSDDSDSEKRRPEEQEEEPQPRKPGTRRERTLGAPASSERSAAGGRGPRGHKRKLNEEDAASESSRESSNEDEGSSSEADEMAKALEAELNDLM
notes: LiTAA source protein
B5: T-cell activation RhoGTPase activating protein (protein, UniProt Q8N103 1-731, looked up)
T-cell activation Rho …: MKLRSSHNASKTLNANNMETLIECQSEGDIKEHPLLASCESEDSICQLIEVKKRKKVLSWPFLMRRLSPASDFSGALETDLKASLFDQPLSIICGDSDTLPRPIQDILTILCLKGPSTEGIFRRAANEKARKELKEELNSGDAVDLERLPVHLLAVVFKDFLRSIPRKLLSSDLFEEWMGALEMQDEEDRIEALKQVADKLPRPNLLLLKHLVYVLHLISKNSEVNRMDSSNLAICIGPNMLTLENDQSLSFEAQKDLNNKVKTLVEFLIDNCFEIFGENIPVHSSITSDDSLEHTDSSDVSTLQNDSAYDSNDPDVESNSSSGISSPSRQPQVPMATAAGLDSAGPQDAREVSPEPIVSTVARLKSSLAQPDRRYSEPSMPSSQECLESRVTNQTLTKSEGDFPVPRVGSRLESEEAEDPFPEEVFPAVQGKTKRPVDLKIKNLAPGSVLPRALVLKAFSSSSLDASSDSSPVASPSSPKRNFFSRHQSFTTKTEKGKPSREIKKHSMSFTFAPHKKVLTKNLSAGSGKSQDFTRDHVPRGVRKESQLAGRIVQENGCETHNQTARGFCLRPHALSVDDVFQGADWERPGSPPSYEEAMQGPAARLVASESQTVGSMTVGSMRARMLEAHCLLPPLPPAHHVEDSRHRGSKEPLPGHGLSPLPERWKQSRTVHASGDSLGHVSGPGRPELLPLRTVSESVQRNKRDCLVRRCSQPVFEADQFQYAKESYI
notes: LiTAA source protein
B6: cell division cycle associated 7-like (protein, UniProt Q96GN5 1-454, looked up)
Cell division …: MELATRYQIPKEVADIFNAPSDDEEFVGFRDDVPMETLSSEESCDSFDSLESGKQQDVRFHSKYFTEELRRIFIEDTDSETEDFAGFTQSDLNGKTNPEVMVVESDLSDDGKASLVSEEEEDEEEDKATPRRSRSRRSSIGLRVAFQFPTKKLANKPDKNSSSEQLFSSARLQNEKKTILERKKDCRQVIQREDSTSESEDDSRDESQESSDALLKRTMNIKENKAMLAQLLAELNSMPDFFPVRTPTSASRKKTVRRAFSEGQITRRMNPTRSARPPEKFALENFTVSAAKFAEEFYSFRRRKTIGGKCREYRRRHRISSFRPVEDITEEDLENVAITVRDKIYDKVLGNTCHQCRQKTIDTKTVCRNQGCCGVRGQFCGPCLRNRYGEDVRSALLDPDWVCPPCRGICNCSYCRKRDGRCATGILIHLAKFYGYDNVKEYLESLQKELVEDN
notes: LiTAA source protein

system: primary CLL samples (PBMC from CLL patients), HLA class I ligands; experiment: HLA class I ligandome analysis by LC-MS/MS (frequency of HLA restricted presentation); design: species or system human; conditions: CLL patient HLA class I ligandomes (n = 30)

| Molecule | Number of positive CLLs |
| --- | --- |
| B1 | 6 |
| B2 | 6 |
| B3 | 11 |
| B4 | 11 |
| B5 | 10 |
| B6 | 11 |

same assay, conditions: source protein (LiTAA) representation in CLL patient HLA class I ligandomes (n = 30)

| Molecule | Number of positive CLLs (frequency [%]) [%] |
| --- | --- |
| B1 | 20.0 |
| B2 | 20.0 |
| B3 | 36.7 |
| B4 | 36.7 |
| B5 | 33.3 |
| B6 | 36.7 |
